PubChem BioAssay AID1508597 | Cure First – 2020

- Purpose: 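Survival screen with siRNA in ovarian cancer cells derived from patients, with or without rucaparib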 (primary screen)
- Cell system: human ovarian carcinoma lines grown from tumours: OCI-P5x (papillary serous) and OCI-C5x (clear cell)
- Knock-down reagent: siRNA pool against human genes, 1.25 pmol siRNA per well
- Duration: 72 h or 96 h, depending on the cell culture
- Conditions: rucaparib 20 µM (about IC30) or vehicle, present until read-out
- Measurement: 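Luminescent ATP-based viability assay read 72 or 96 h after transfection, depending on culture, given as normalised percent viability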
- Reading the numbers: viability, normalised: higher = more viable cells remaining
- Hit rule: 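a well counts as a hit if its normalised viability is under 80 percent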
- Meaning of the calls: active = viability under 80%; inactive = viability 80% or more
This is an unselected part of about 2,100 reagents tested. 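Calls flag viability under 80% in either arm, not effects specific to rucaparib; the reference for percent is not stated.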 Reagent sequences are not shown. Not stated in the record: the 100% reference.

gene symbol | rucaparib or vehicle | cell line | technical replicate | viability, normalised (%) | Outcome
POLR2I | Rucaparib | OCI-C5x (clear cell) | 1 | 44.8 | active
POLR2I | Rucaparib | OCI-C5x (clear cell) | 2 | 55.7 | active
POLR2I | Rucaparib | OCI-C5x (clear cell) | 3 | 48.1 | active
POLR2I | Rucaparib | OCI-P5x (serous) | 1 | 78 | active
POLR2I | Rucaparib | OCI-P5x (serous) | 2 | 84.3 | inactive
POLR2I | Rucaparib | OCI-P5x (serous) | 3 | 79.8 | active
POLR2I | Vehicle | OCI-C5x (clear cell) | 1 | 51.6 | active
POLR2I | Vehicle | OCI-C5x (clear cell) | 2 | 44.7 | active
POLR2I | Vehicle | OCI-C5x (clear cell) | 3 | 34.5 | active
POLR2I | Vehicle | OCI-P5x (serous) | 1 | 48.7 | active
POLR2I | Vehicle | OCI-P5x (serous) | 2 | 63.7 | active
POLR2I | Vehicle | OCI-P5x (serous) | 3 | 66.9 | active
CTBP1-DT | Rucaparib | OCI-C5x (clear cell) | 1 | 78.9 | active
CTBP1-DT | Rucaparib | OCI-C5x (clear cell) | 2 | 73.6 | active
CTBP1-DT | Rucaparib | OCI-C5x (clear cell) | 3 | 65.5 | active
CTBP1-DT | Rucaparib | OCI-P5x (serous) | 1 | 85.7 | inactive
CTBP1-DT | Rucaparib | OCI-P5x (serous) | 2 | 97.6 | inactive
CTBP1-DT | Rucaparib | OCI-P5x (serous) | 3 | 103 | inactive
CTBP1-DT | Vehicle | OCI-C5x (clear cell) | 1 | 71.9 | active
CTBP1-DT | Vehicle | OCI-C5x (clear cell) | 2 | 66 | active
CTBP1-DT | Vehicle | OCI-C5x (clear cell) | 3 | 78.1 | active
CTBP1-DT | Vehicle | OCI-P5x (serous) | 1 | 89.2 | inactive
CTBP1-DT | Vehicle | OCI-P5x (serous) | 2 | 87.7 | inactive
CTBP1-DT | Vehicle | OCI-P5x (serous) | 3 | 86.1 | inactive
RASA3 | Rucaparib | OCI-C5x (clear cell) | 1 | 66.1 | active
RASA3 | Rucaparib | OCI-C5x (clear cell) | 2 | 52.3 | active
RASA3 | Rucaparib | OCI-C5x (clear cell) | 3 | 45.9 | active
RASA3 | Rucaparib | OCI-P5x (serous) | 1 | 66.9 | active
RASA3 | Rucaparib | OCI-P5x (serous) | 2 | 68.8 | active
RASA3 | Rucaparib | OCI-P5x (serous) | 3 | 73.8 | active
RASA3 | Vehicle | OCI-C5x (clear cell) | 1 | 60.5 | active
RASA3 | Vehicle | OCI-C5x (clear cell) | 2 | 46.9 | active
RASA3 | Vehicle | OCI-C5x (clear cell) | 3 | 72 | active
RASA3 | Vehicle | OCI-P5x (serous) | 1 | 85.1 | inactive
RASA3 | Vehicle | OCI-P5x (serous) | 2 | 87.9 | inactive
RASA3 | Vehicle | OCI-P5x (serous) | 3 | 108 | inactive

Entries above whose target name starts with R or r (12):
gene symbol | rucaparib or vehicle | cell line | technical replicate | viability, normalised (%) | Outcome
RASA3 | Rucaparib | OCI-C5x (clear cell) | 1 | 66.1 | active
RASA3 | Rucaparib | OCI-C5x (clear cell) | 2 | 52.3 | active
RASA3 | Rucaparib | OCI-C5x (clear cell) | 3 | 45.9 | active
RASA3 | Rucaparib | OCI-P5x (serous) | 1 | 66.9 | active
RASA3 | Rucaparib | OCI-P5x (serous) | 2 | 68.8 | active
RASA3 | Rucaparib | OCI-P5x (serous) | 3 | 73.8 | active
RASA3 | Vehicle | OCI-C5x (clear cell) | 1 | 60.5 | active
RASA3 | Vehicle | OCI-C5x (clear cell) | 2 | 46.9 | active
RASA3 | Vehicle | OCI-C5x (clear cell) | 3 | 72 | active
RASA3 | Vehicle | OCI-P5x (serous) | 1 | 85.1 | inactive
RASA3 | Vehicle | OCI-P5x (serous) | 2 | 87.9 | inactive
RASA3 | Vehicle | OCI-P5x (serous) | 3 | 108 | inactive

The listing continues.
gene symbol | rucaparib or vehicle | cell line | technical replicate | viability, normalised (%) | Outcome
PRMT2 | Rucaparib | OCI-C5x (clear cell) | 1 | 68.9 | active
PRMT2 | Rucaparib | OCI-C5x (clear cell) | 2 | 51.8 | active
PRMT2 | Rucaparib | OCI-C5x (clear cell) | 3 | 44.7 | active
PRMT2 | Rucaparib | OCI-P5x (serous) | 1 | 53.2 | active
PRMT2 | Rucaparib | OCI-P5x (serous) | 2 | 52.3 | active
PRMT2 | Rucaparib | OCI-P5x (serous) | 3 | 48.2 | active
PRMT2 | Vehicle | OCI-C5x (clear cell) | 1 | 55.5 | active
PRMT2 | Vehicle | OCI-C5x (clear cell) | 2 | 46 | active
PRMT2 | Vehicle | OCI-C5x (clear cell) | 3 | 54.2 | active
PRMT2 | Vehicle | OCI-P5x (serous) | 1 | 48.1 | active
PRMT2 | Vehicle | OCI-P5x (serous) | 2 | 76.9 | active
PRMT2 | Vehicle | OCI-P5x (serous) | 3 | 101 | inactive
TAOK3 | Rucaparib | OCI-C5x (clear cell) | 1 | 55.4 | active
TAOK3 | Rucaparib | OCI-C5x (clear cell) | 2 | 87.2 | inactive
TAOK3 | Rucaparib | OCI-C5x (clear cell) | 3 | 75 | active
TAOK3 | Rucaparib | OCI-P5x (serous) | 1 | 105 | inactive
TAOK3 | Rucaparib | OCI-P5x (serous) | 2 | 84.2 | inactive
TAOK3 | Rucaparib | OCI-P5x (serous) | 3 | 61.2 | active
TAOK3 | Vehicle | OCI-C5x (clear cell) | 1 | 73.3 | active
TAOK3 | Vehicle | OCI-C5x (clear cell) | 2 | 51.1 | active
TAOK3 | Vehicle | OCI-C5x (clear cell) | 3 | 64.3 | active
TAOK3 | Vehicle | OCI-P5x (serous) | 1 | 74.8 | active
TAOK3 | Vehicle | OCI-P5x (serous) | 2 | 73.1 | active
TAOK3 | Vehicle | OCI-P5x (serous) | 3 | 92.9 | inactive
